Results taken from the supplement of paper PMC5949888.
Most values lie at the floor of the assay. Slopes are relative: functional sequences can read slightly below zero.

The substances below were run on Saccharomyces cerevisiae PS128 hsf1 delta, HSF1(1-493) fusion (assay: growth estimate (transactivation domain function in HSF1 fusion, heat-shock survival) (a.u. (slope of normalised read count over time)); higher = stronger growth at 37°C, i.e. more transactivation activity). Details: library: random library.
Description: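 Random 60-nt DNA library encoding peptides of up to 20 aa, fused to the C-terminus of yeast HSF1 residues 1-493 (C-terminal TAD deleted) and expressed from the native HSF1 promoter on a CEN plasmid in hsf1-deleted S. cerevisiae PS128. Cells were selected at 37°C on -trp 5-FOA plates for 0, 2, 4, 6 and 8 days and amplicons were sequenced. Growth estimate is the slope of a robust linear fit of total-sum-normalised read counts (normalised to the first time point) over time, using at least 2 replicates. Sequences are classed functional (TAD activity) above a threshold of -0.13, set from stop-codon control sequences.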

Row | Substance | growth estimate
1 | FWVTRIKGKVYVIKGGTVYA | < -0.25
2 | FWWLSHC | < -0.25
3 | FYAGREASSNMSGVVSLLVP | < -0.25
4 | FYFRVHGRTRRAQLRGRARA | < -0.25
5 | FYKRH | < -0.25
6 | FYKVAQANRGDRKEGAIMHS | < -0.25
7 | FYLGKRGHLVGTERYIPFRA | < -0.25
8 | FYNQTSSLSHRSCQGVVTRR | < -0.25
9 | FYPYE | < -0.25
10 | FYRPLVSDGGIGPRAL | < -0.25
11 | FYRSPGVGICPAVA | < -0.25
12 | FYTSLGVKAGTLRTWDAPMQ | < -0.25
13 | FYVIDLRQDSAVYVTAIRSK | < -0.25
14 | GAARVWKS | < -0.25
15 | GAAWKRMTRVG | < -0.25
16 | GAELRMSSMGRDVALGSNWV | < -0.25
17 | GAENGQGRLWCFAFGVRIEL | < -0.25
18 | GAETCTRPPSPDCTVKLVDR | < -0.25
19 | GAFVASATRDFVVRLSRKHE | < -0.25
20 | GAGFGIS | < -0.25
21 | GAHQLAGPVRLKDTGPHDSY | < -0.25
22 | GAIEWGPMVWSPWQAR | < -0.25
23 | GAIGSMQANAAFGVALYSPL | < -0.25
24 | GAKMYRWLSTMDGFGSYANP | < -0.25

17 entries from above, tab-delimited.
Row	Substance	growth estimate
2	FWWLSHC	< -0.25
3	FYAGREASSNMSGVVSLLVP	< -0.25
4	FYFRVHGRTRRAQLRGRARA	< -0.25
5	FYKRH	< -0.25
6	FYKVAQANRGDRKEGAIMHS	< -0.25
7	FYLGKRGHLVGTERYIPFRA	< -0.25
8	FYNQTSSLSHRSCQGVVTRR	< -0.25
9	FYPYE	< -0.25
10	FYRPLVSDGGIGPRAL	< -0.25
11	FYRSPGVGICPAVA	< -0.25
12	FYTSLGVKAGTLRTWDAPMQ	< -0.25
13	FYVIDLRQDSAVYVTAIRSK	< -0.25
14	GAARVWKS	< -0.25
15	GAAWKRMTRVG	< -0.25
16	GAELRMSSMGRDVALGSNWV	< -0.25
17	GAENGQGRLWCFAFGVRIEL	< -0.25
18	GAETCTRPPSPDCTVKLVDR	< -0.25

(next part)

Row | Substance | growth estimate
25 | GAKVDH | < -0.25
26 | GALE | < -0.25
27 | GALSLRSVLTHYQPSRRKVK | < -0.25
28 | GALVKSSERQILFPHAYLPF | < -0.25
29 | GAPLYIAQDRVYELKVRVIL | < -0.25
30 | GAPMPKAPTVLSTLNGRSIA | < -0.25
31 | GAPRV | < -0.25
32 | GARVGTVINT | < -0.25
33 | GARVP | < -0.25
34 | GASCLFLRQQPHICLVLDYP | < -0.25
35 | GASCRRGERFIPPLRGIVTC | < -0.25
36 | GASLFEVRAHLRSRR | < -0.25
37 | GASSAM | < -0.25
38 | GATFLKTFSGLQLLTTSCGV | < -0.25
39 | GATRRQGTCVKASTGALRTQ | < -0.25
40 | GAVAREPFD | < -0.25
41 | GAVHLVRYPSLSPTDNSDSR | < -0.25
42 | GAVVHSSSNKRKGLV | < -0.25
43 | GAWKEWVNGLDGDGAMVHGR | -0.241
44 | GAWNGSEELLSGITRFS | < -0.25
45 | GCAQIRLRKTVLSLGYSGRR | < -0.25
46 | GCCGLWAMWGTGLRGWG | < -0.25
47 | GCDLNRGLTGFWYSTRAGIK | < -0.25
48 | GCFLNPLFIYVLVYIHPMPQ | < -0.25

Row | Substance | growth estimate
49 | GCG | < -0.25
50 | GCGICA | < -0.25
51 | GCGKL | < -0.25
52 | GCGQLAALPRTTR | < -0.25
53 | GCHRKFVATIL | < -0.25
54 | GCIFSANYPMAIKYG | < -0.25
55 | GCIVDYYIIIKSQTLHFVTF | < -0.25
56 | GCL | < -0.25
57 | GCLSGIRRYSCAAFGMGQRA | < -0.25
58 | GCLYYADGR | < -0.25
59 | GCPAFIIVGPP | < -0.25
60 | GCQMRGVAITPAGGEVIVFV | < -0.25
61 | GCQTWSLCCFKACCRRGVSV | < -0.25
62 | GCRASLKLENVVFRRVVSIE | < -0.25
63 | GCRDRMHARVRAV | < -0.25
64 | GCRS | < -0.25
65 | GCSIRATLTWPRSIAHTPVC | < -0.25
66 | GCSPSRTVINSYRVREKRCR | -0.245
67 | GCSRHFFLGCGPVGFKVVEV | < -0.25
68 | GCTAVGRESSKAEREMGGPR | < -0.25
69 | GCVA | < -0.25
70 | GCVGYGV | < -0.25
71 | GCVRAHKEVVHFGTSCLGAI | < -0.25
